From publication PMC11325555, “Interaction of Bisphenol A and Its Analogs with Estrogen and Androgen Receptor from Atlantic Cod (Gadus morhua)” (Environmental Science & Technology, 2024)

Biological target: T1, Atlantic cod estrogen receptor alpha (gmEra) LBD (Gadus morhua, UniProt U5ILH7)
T1 sequence (U5ILH7 170-455): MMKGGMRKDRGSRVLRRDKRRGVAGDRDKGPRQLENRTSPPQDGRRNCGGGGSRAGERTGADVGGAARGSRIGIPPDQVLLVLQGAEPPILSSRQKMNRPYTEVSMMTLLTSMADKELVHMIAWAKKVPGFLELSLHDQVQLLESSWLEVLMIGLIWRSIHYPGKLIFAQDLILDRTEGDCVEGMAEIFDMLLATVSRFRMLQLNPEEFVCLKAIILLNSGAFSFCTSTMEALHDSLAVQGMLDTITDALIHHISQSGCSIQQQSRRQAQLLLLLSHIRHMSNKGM
Experiment: Luciferase reporter gene assay, gmEra antagonism (antiestrogenic activity), coexposure with 3 nM EE2
Type: cell-based
Description: Ligand activation of gmEra and gmAra was studied with a luciferase reporter gene assay in COS-7 cells transiently transfected with the pCMX-GAL4(DBD)-gmEra(LBD) or pCMX-GAL4(DBD)-gmAra(LBD) plasmid by using the TransIT-LT1 reagent (TransIT-LT1 Transfection Reagent, Mirus). Cells were seeded into 96-well plates (5000 cells/well) and incubated for 24 h before cotransfection with the plasmid mixture (100 ng/well). The plasmid mixture contained GAL4-UAS luciferase reporter plasmid (tk-(MH100)x4 luc), the pCMX-GAL4(DBD)-gmEra(LBD) or pCMX-GAL4(DBD)-gmAra(LBD) receptor plasmids (2:1 reporter:receptor plasmid mass ratio), and a plasmid constitutively producing the β-galactosidase enzyme used for normalization of transfection efficiency (pCMV- β-Gal). […] The maximum DMSO/methanol concentrations in the exposure wells were 0.5% (v/v) in DMEM medium without phenol red (Sigma-Aldrich). After exposure, cells were lysed, and luciferase and beta-galactosidase activities were measured as luminescence and absorbance (420 nm) after the addition of luciferin and ONPG substrates, respectively, using an Enspire Multimode plate reader (PerkinElmer, Waltham, Massachusetts, USA). […]

Compound `CC/C(=C(\c1ccccc1)c1ccc(OCCN(C)C)cc1)c1ccccc1` [tamoxifen, reference compound] has an IC50 of 1.5 nM.
